{"source": "PubChem BioAssay AID686937 (Drosophila RNAi Screening Center, 2013)", "test": "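Genes whose loss weakens secretory pathway function in fly cells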 (primary screen)", "system": "Drosophila S2 cells expressing secreted horseradish peroxidase", "knock-down reagent": "long dsRNA against Drosophila genes", "duration": "about 5.5 days (5 days dsRNA, then 12 h reporter induction)", "treatment": "reporter expression induced after 5 days of dsRNA, read 12 h later; inducer not stated", "read-out": "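After 5 days of dsRNA and 12 h of reporter induction, medium peroxidase read by chemiluminescence and scored as per-plate z-score; higher values mean more reporter released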", "reading the numbers": "z-score: higher = more reporter secreted into medium", "note": "The screen tested about 23,000 reagents; shown is a random part of those with a known target gene and a result. 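Reduced-secretion tags in replicate 1 do not always agree with the z-scores; no criterion for assigning the tags was given.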 The numbers tell different reagents against one gene apart. Not all columns of the deposit are shown. Reagent sequences are not shown. Not given: the amount of reagent."}
{"predicted target": "CG10341", "reagent": 1, "z-score, replicate 1": 0.31}
{"predicted target": "CG42697", "reagent": 1, "z-score, replicate 1": 0.41}
{"predicted target": "CG4822", "reagent": 1, "z-score, replicate 1": 0.27}
{"predicted target": "CG4768", "reagent": 1, "z-score, replicate 1": 0.36}
{"predicted target": "RpL37A", "reagent": 1, "z-score, replicate 1": -1.91, "phenotype, replicate 1": "reduced secretion"}
{"predicted target": "Brd", "reagent": 1, "z-score, replicate 1": 0.36}
{"predicted target": "CG13040", "reagent": 1, "z-score, replicate 1": 0.36}
{"predicted target": "drongo", "reagent": 1, "z-score, replicate 1": 0.36}
{"predicted target": "side-V", "reagent": 1, "z-score, replicate 1": 0.57}
{"predicted target": "side-V", "reagent": 2, "z-score, replicate 1": 0.81}
{"predicted target": "side-V", "reagent": 3, "z-score, replicate 1": -1.07, "phenotype, replicate 1": "reduced secretion"}
{"predicted target": "eEF1delta", "reagent": 1, "z-score, replicate 1": 0.46}
{"predicted target": "CG14731", "reagent": 1, "z-score, replicate 1": 0.25}
{"predicted target": "tho2", "reagent": 1, "z-score, replicate 1": -1.1}
{"predicted target": "CG3407", "reagent": 1, "z-score, replicate 1": 0.16}
{"predicted target": "CG34370", "reagent": 1, "z-score, replicate 1": 0.41}
{"predicted target": "CG34370", "reagent": 2, "z-score, replicate 1": 0.2}
{"predicted target": "CG34370", "reagent": 3, "z-score, replicate 1": 0.28}
{"predicted target": "CG34370", "reagent": 4, "z-score, replicate 1": 0.29}

3 consecutive entries from above, quoted:
{"predicted target": "CG34370", "reagent": 1, "z-score, replicate 1": 0.41}
{"predicted target": "CG34370", "reagent": 2, "z-score, replicate 1": 0.2}
{"predicted target": "CG34370", "reagent": 3, "z-score, replicate 1": 0.28}
